From US11771669B2, “Topical composition and delivery system and its use” (SBG MEDICAL TECHNOLOGIES, INC., priority 2012, dated 2023)

Conditions: during the study and within 24 h after; 34 subjects, 1 mL topical at 0 and 4 h

In the case of CCN(CC)CC(=O)Nc1c(C)cccc1C [lidocaine, 2-(diethylamino)-N-(2,6-dimethylphenyl)acetamide], the “Adverse effects / clinical signs of toxicity (in words)” value was “not reported”.
